Experimental findings from the supplement of paper PMC10849652 are described below.

Sequences of proteins named here, by UniProt entry; tags and fusion partners are left off. A change or cut given only in a name is not applied to a line headed by its entry.
UniProt Q96RL1: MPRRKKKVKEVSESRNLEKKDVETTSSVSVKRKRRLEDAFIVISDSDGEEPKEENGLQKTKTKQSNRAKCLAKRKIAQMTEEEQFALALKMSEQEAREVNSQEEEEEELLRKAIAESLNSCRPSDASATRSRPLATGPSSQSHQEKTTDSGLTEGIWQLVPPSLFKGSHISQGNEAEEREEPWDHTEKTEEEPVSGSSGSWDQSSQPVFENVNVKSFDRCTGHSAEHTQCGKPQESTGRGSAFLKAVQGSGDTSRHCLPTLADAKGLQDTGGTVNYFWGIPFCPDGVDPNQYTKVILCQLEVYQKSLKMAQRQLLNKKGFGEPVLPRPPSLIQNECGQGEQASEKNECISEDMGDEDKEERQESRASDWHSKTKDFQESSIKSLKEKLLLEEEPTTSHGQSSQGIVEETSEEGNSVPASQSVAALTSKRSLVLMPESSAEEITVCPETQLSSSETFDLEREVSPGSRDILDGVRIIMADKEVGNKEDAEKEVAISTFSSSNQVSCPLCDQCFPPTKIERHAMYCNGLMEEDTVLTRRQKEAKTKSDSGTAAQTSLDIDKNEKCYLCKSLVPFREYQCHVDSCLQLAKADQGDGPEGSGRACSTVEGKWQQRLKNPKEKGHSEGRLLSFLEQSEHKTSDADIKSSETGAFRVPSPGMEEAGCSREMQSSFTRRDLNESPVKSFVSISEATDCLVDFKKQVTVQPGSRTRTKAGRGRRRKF
UniProt Q5T4S7, whole entry, looked up: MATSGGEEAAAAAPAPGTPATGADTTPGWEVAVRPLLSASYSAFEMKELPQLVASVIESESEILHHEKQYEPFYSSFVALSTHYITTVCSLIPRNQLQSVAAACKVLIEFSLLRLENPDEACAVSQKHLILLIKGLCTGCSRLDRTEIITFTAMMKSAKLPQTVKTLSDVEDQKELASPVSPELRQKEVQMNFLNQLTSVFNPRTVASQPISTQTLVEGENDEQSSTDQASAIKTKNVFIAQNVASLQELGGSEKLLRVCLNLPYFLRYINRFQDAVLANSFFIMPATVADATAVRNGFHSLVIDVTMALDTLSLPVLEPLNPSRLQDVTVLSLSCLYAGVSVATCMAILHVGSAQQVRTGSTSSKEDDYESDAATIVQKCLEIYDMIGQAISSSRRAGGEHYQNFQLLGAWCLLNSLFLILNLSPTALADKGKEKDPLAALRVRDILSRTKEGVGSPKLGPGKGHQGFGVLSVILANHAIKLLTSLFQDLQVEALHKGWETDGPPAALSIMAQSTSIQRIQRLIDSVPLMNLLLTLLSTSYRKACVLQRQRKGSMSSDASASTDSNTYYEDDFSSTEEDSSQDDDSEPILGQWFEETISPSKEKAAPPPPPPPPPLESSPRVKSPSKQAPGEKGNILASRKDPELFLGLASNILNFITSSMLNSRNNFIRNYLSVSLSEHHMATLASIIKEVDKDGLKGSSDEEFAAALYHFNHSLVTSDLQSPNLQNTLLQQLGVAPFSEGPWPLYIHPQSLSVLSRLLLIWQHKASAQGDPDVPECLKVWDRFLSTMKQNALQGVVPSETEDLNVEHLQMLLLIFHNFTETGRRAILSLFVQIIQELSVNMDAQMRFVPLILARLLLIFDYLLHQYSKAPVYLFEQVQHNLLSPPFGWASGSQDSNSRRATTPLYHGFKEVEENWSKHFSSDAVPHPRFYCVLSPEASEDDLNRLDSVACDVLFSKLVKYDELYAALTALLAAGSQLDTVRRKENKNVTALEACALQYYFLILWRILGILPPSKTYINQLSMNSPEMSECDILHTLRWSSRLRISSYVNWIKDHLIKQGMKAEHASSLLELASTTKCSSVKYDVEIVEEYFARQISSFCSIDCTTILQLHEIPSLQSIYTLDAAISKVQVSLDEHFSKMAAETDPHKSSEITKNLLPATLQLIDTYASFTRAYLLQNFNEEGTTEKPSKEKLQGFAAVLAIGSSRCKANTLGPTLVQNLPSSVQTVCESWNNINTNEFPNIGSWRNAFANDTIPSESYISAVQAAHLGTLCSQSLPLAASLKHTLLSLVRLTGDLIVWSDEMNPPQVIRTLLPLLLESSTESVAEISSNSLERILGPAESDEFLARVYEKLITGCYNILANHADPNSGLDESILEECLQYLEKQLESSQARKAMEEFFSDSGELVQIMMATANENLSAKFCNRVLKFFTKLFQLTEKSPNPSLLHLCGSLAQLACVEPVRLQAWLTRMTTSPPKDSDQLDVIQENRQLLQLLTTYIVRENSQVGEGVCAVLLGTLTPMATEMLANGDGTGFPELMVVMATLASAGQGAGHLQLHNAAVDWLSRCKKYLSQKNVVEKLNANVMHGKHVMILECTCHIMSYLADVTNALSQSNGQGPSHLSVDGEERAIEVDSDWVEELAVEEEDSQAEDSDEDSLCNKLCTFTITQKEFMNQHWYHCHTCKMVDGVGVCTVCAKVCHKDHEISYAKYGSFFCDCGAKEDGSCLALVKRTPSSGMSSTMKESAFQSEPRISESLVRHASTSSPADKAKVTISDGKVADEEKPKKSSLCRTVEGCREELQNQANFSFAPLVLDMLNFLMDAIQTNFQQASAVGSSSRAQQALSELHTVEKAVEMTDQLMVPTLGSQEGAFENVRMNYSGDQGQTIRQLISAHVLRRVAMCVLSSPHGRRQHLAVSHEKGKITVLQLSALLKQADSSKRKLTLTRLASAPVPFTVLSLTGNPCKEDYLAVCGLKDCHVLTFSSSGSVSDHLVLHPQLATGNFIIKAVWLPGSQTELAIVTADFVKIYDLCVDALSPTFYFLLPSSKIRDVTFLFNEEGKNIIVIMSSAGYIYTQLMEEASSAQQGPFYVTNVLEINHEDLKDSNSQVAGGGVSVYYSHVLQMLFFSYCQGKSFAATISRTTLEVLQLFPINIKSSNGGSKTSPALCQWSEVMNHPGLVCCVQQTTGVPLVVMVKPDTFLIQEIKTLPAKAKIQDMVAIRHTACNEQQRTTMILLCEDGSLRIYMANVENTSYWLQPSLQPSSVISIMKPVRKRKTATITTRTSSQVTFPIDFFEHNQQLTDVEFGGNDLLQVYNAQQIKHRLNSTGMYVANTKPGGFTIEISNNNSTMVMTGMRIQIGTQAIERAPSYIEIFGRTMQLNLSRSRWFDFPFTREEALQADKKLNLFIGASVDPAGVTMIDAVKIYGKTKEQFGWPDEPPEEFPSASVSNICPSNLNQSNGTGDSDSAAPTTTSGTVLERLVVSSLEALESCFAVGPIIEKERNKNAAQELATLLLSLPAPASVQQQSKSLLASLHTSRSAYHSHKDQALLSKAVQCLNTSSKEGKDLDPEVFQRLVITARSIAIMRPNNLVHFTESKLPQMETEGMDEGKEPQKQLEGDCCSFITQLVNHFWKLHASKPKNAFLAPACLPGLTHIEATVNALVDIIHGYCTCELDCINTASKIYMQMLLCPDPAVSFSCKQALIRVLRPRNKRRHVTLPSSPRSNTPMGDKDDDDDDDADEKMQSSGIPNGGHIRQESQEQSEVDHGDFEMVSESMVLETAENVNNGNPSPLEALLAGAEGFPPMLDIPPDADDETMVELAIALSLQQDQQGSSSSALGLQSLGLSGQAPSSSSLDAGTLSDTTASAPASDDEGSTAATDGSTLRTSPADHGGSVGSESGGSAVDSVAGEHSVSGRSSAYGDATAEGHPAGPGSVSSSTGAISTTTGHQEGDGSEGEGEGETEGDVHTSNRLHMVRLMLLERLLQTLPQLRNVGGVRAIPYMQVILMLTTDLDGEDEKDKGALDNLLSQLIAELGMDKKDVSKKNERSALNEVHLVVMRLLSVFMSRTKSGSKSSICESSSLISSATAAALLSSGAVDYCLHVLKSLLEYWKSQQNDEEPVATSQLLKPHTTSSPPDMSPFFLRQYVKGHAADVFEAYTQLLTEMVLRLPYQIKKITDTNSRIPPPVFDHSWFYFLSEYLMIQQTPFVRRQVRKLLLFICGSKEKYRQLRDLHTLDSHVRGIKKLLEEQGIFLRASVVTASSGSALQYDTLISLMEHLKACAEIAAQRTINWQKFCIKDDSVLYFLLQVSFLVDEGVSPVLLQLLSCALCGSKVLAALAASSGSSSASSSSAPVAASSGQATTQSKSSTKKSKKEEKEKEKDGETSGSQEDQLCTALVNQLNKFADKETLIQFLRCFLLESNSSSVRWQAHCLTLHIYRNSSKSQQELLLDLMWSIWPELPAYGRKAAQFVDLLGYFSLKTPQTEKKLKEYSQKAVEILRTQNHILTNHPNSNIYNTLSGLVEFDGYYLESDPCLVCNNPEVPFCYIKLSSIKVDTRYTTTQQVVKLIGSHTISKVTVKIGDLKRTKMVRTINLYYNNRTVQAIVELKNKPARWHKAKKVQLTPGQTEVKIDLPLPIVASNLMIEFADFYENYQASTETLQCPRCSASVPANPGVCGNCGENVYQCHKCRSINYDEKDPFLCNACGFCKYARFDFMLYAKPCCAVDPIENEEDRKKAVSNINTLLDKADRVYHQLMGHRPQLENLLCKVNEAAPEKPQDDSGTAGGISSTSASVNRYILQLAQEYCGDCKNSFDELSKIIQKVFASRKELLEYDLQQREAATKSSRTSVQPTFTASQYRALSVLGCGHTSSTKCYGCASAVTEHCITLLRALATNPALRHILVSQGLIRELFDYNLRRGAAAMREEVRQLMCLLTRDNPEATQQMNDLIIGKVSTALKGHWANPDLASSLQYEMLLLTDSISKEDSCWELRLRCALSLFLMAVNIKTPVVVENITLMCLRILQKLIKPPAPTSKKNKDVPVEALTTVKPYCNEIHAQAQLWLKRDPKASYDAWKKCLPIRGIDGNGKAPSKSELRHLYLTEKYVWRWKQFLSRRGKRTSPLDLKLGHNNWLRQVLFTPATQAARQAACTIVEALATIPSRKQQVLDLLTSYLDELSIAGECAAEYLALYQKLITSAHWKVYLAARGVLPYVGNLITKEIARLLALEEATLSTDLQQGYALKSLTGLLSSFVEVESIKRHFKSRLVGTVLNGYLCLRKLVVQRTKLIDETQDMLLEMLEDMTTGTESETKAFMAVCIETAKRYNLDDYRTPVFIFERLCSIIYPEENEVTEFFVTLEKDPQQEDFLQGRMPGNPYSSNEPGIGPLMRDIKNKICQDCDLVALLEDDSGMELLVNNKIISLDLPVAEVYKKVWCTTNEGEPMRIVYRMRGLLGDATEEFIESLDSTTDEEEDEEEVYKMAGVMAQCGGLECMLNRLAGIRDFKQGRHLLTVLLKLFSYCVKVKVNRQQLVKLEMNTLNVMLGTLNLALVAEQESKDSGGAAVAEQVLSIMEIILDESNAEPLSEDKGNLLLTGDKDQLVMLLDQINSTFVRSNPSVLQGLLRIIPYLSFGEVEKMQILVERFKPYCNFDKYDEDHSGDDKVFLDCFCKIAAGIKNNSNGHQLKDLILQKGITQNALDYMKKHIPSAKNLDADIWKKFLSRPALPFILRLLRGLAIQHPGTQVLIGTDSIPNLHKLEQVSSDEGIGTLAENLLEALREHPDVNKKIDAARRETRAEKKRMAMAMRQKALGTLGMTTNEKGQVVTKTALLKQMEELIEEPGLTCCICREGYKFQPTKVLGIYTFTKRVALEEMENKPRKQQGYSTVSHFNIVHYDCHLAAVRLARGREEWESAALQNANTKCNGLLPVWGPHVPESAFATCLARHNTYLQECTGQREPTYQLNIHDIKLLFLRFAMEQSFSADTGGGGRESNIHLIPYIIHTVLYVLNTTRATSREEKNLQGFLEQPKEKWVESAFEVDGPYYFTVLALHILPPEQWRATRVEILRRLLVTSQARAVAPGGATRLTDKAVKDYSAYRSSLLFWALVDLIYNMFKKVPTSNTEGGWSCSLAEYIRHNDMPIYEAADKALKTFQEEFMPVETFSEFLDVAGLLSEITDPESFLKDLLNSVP
UniProt O75379: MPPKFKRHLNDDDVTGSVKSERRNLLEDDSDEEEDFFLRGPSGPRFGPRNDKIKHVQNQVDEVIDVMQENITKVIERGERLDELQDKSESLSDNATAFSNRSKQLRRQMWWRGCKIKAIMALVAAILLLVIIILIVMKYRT
UniProt P07919: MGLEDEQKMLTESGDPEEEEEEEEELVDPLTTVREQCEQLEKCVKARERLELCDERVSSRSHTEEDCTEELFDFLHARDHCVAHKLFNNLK
UniProt P50552: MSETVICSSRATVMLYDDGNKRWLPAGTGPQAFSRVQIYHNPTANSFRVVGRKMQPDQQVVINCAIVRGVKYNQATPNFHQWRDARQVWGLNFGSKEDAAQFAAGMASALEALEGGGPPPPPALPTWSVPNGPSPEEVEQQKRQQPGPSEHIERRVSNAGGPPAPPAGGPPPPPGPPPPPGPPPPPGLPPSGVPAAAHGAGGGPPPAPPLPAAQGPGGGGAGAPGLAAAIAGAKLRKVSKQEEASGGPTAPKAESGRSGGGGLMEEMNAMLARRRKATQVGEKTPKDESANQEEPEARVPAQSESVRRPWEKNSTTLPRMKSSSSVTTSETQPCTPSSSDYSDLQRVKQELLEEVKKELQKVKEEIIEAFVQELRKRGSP

The list shows a part of the results.

Compound in this assay: NC1(c2ccc(-c3nc4ccn5c(=O)[nH]nc5c4cc3-c3ccccc3)cc2)CCC1
The assay is described as follows: log2 fold change, soluble protein after heating vs DMSO (PISA); higher = thermal stabilisation; K562 cells, 10 uM, 30 min; active = over 0.2 and 3.5 SD of the protein, either way, in both replicates (recomputed). A digest of the protocol:
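Soluble protein was defined as the supernatant after 21,000xg for 90 min. It came from K562 cells at 2×10^6 cells/mL given 10 μM compound for 30 min, heated in aliquots for 3 min across 48°C-58°C, pooled, and extracted in PBS with 0.5% NP-40 at 4°C, and was quantified by TMTpro 16plex LC-MS/MS with equalised channel sums. Thermal stability against control samples, from duplicates, is reported as log2 fold change.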
Take USE1 (UniProt Q9NZ43): the log2 fold change was inactive: -0.064.

As for URI1 (UniProt O94763), the log2 fold change was inactive: -0.01.

As for UMPS (UniProt P11172), the log2 fold change was inactive: -0.028.

Consider UTP3 (UniProt Q9NQZ2), for which the log2 fold change is inactive: 0.286. On to UIMC1 (UniProt Q96RL1), for which the log2 fold change was inactive: 0.185. Then USP8 (UniProt P40818), with inactive: -0.085. Then UGGT2 (UniProt Q9NYU1), with inactive: -0.055; and UBR4 isoform 2 (UniProt Q5T4S7), with inactive: -0.127. To UBE3C (UniProt Q15386) belongs inactive: -0.086. As for UQCRFS1 (UniProt P47985), the log2 fold change is inactive: 0.035.

In the case of UBQLN1 (UniProt Q9UMX0), the log2 fold change was inactive: 0.002. Turning to UTP14A (UniProt Q9BVJ6), the log2 fold change was inactive: 0.083. Turning to UBXN7 (UniProt O94888), the log2 fold change is inactive: -0.096. Then VAMP4 (UniProt O75379), with inactive: -0.12; and VAPA (UniProt Q9P0L0), with inactive: -0.001; and VARS (UniProt P26640), with inactive: -0.074. Then UCKL1 (UniProt Q9NWZ5), with inactive: -0.05; and USP48 isoform 8 (UniProt Q86UV5), with inactive: -0.235; and VCL (UniProt P18206), with inactive: 0.012.

Take UGGT1 (UniProt Q9NYU2): the log2 fold change is inactive: -0.06.

Take UQCC2 (UniProt Q9BRT2): the log2 fold change is inactive: -0.048.

In the case of UBR7 (UniProt Q8N806), the log2 fold change was inactive: 0.003. As for USP5 (UniProt P45974), the log2 fold change is inactive: -0.053.

UQCRH (UniProt P07919): the log2 fold change is inactive: -0.013. Then USP10 isoform 2 (UniProt Q14694), with inactive: 0.048. UROS (UniProt P10746): the log2 fold change is inactive: -0.027. With UCHL3 (UniProt P15374), the log2 fold change was inactive: -0.094. Regarding UFD1 isoform 1 (UniProt Q92890), the log2 fold change was inactive: -0.03. As to VARS2, A0A0G2JL52, the log2 fold change was inactive: -0.087. Take VAPA isoform 2 (UniProt Q9P0L0): the log2 fold change is inactive: 0.02. In the case of UQCRC2 (UniProt P22695), the log2 fold change was inactive: 0.017. To USP15 (UniProt Q9Y4E8) belongs inactive: -0.185; to UBE4B isoform 4 (UniProt O95155), inactive: -0.113. Then UGT8 (UniProt Q16880), with inactive: -0.011; and UROD (UniProt P06132), with inactive: 0.04. UEVLD (UniProt Q8IX04): the log2 fold change was inactive: 0.126. As for USP9X (UniProt Q93008), the log2 fold change is inactive: -0.174. Then USP14 (UniProt P54578), with inactive: -0.161. Take VASP (UniProt P50552): the log2 fold change was inactive: -0.026.
